Assay [1] concerns the target T1, yeast β'-COP 1-304 D98A D117A (yeast (S. cerevisiae)) (UniProt P41811).
T1 sequence: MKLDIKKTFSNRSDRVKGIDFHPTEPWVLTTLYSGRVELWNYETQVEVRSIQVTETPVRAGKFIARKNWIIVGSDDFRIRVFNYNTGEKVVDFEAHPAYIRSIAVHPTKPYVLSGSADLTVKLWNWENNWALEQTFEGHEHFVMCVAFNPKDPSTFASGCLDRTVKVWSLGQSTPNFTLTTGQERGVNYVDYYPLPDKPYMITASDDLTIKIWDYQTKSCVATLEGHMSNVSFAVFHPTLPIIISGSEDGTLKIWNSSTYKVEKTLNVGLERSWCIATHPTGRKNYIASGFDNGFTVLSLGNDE
As to the kind of experiment: ITC; Microcal VP-ITC, 10°C; peptide in the syringe at ten times the molar concentration of the β'-COP construct in the cell; 50 mM HEPES (pH 7.4), 100 mM NaCl; both purified. For orientation: ITC needs no label: the signal is the heat of the interaction.

Assay [2] addresses T2, yeast β'-COP 1-304 D206A E248A (yeast (S. cerevisiae)) (UniProt P41811).
T2 sequence: T1 sequence with A98D, A117D, D206A, E248A
The description is as above.

Assay [3] concerns the target T3, yeast β'-COP 1-304 R15A K17A R59A (yeast (S. cerevisiae)) (UniProt P41811).
T3 sequence: T1 sequence with R15A, K17A, R59A, A98D, A117D
The description is as above.

The target of assay [4] is yeast β'-COP 1-604 (both WD-repeat domains), untagged (yeast (S. cerevisiae)) (UniProt P41811). As to the kind of experiment: SEC-MALS; 8 mg/mL sample (100 µL) on an analytical S200 10/300 column, 50 mM Hepes pH 7.4, 100 mM NaCl, 0.4 mL/min; both purified. In general terms: Size exclusion chromatography separates by hydrodynamic size, large species first.

Where a chain is given by its changes, count along the chain named. These are yes or no findings as the source states them, for the method shown. Some entries that bind do so weakly or less than the wild type. For some of these results: Tags and fused reporters may be left off the sequences shown.

In the case of RQEIIKTKLL [KxKxx motif peptide from wild-type yeast Emp47 (…)], the binding result in assay [1], in assay [2] and in assay [3] was “no binding (tested: KD < 300 μM (so in the source))” throughout.

B1: yeast β'-COP 1-604 (both WD-repeat domains), untagged (domain or fragment, UniProt P41811 1-604)
chain: MKLDIKKTFSNRSDRVKGIDFHPTEPWVLTTLYSGRVELWNYETQVEVRSIQVTETPVRAGKFIARKNWIIVGSDDFRIRVFNYNTGEKVVDFEAHPDYIRSIAVHPTKPYVLSGSDDLTVKLWNWENNWALEQTFEGHEHFVMCVAFNPKDPSTFASGCLDRTVKVWSLGQSTPNFTLTTGQERGVNYVDYYPLPDKPYMITASDDLTIKIWDYQTKSCVATLEGHMSNVSFAVFHPTLPIIISGSEDGTLKIWNSSTYKVEKTLNVGLERSWCIATHPTGRKNYIASGFDNGFTVLSLGNDEPTLSLDPVGKLVWSGGKNAAASDIFTAVIRGNEEVEQDEPLSLQTKELGSVDVFPQSLAHSPNGRFVTVVGDGEYVIYTALAWRNKAFGKCQDFVWGPDSNSYALIDETGQIKYYKNFKEVTSWSVPMHSAIDRLFSGALLGVKSDGFVYFFDWDNGTLVRRIDVNAKDVIWSDNGELVMIVNTNSNGDEASGYTLLFNKDAYLEAANNGNIDDSEGVDEAFDVLYELSESITSGKWVGDVFIFTTATNRLNYFVGGKTYNLAHYTKEMYLLGYLARDNKVYLADREVHVYGYEISLEVL
As for B1, the binding entry in assay [4] is on record as “binds weakly”.
